In patent US6861256B2, “Therapeutic and diagnostic tools for impaired glucose tolerance conditions” (The General Hospital Corporation, priority 1997, dated 2005):
Some of these results come from one statement about several compounds together.

Tested on: A. caninum L3
Assay: Drug assay in A. caninum (resumption of feeding of infective L3)
Format: in vivo, Ancylostoma caninum
Details: A. caninum L3 incubated with agonist in tissue culture medium
Experimental: Hookworm infective L3 animals were collected from 1-4 wk old coproculture by the Baermann technique, and decontaminated with 1% HCL in BU buffer (50 mM Na2PO4/22 mM KH2PO4/70 mM NaCl, pH 6.8) (Hawdon and Schad (1991) in Developmental Adaptations in Nematodes., ed. C. A. Toft, A. A. a. L. B. (Oxford University Press, Oxford), pp. 274-298; and Hawdon and Schad (1991) J. Helm. Soc. Wash. 58:140-142) for 30 minutes at 22° C. Approximately 250 L3 animals were incubated in individual wells of a 96-well tissue culture plate containing 0.1 ml RPMI1640 tissue culture medium, supplemented with 0.25 mM HEPES pH 7.2, 100 U/ml penicillin, 100 μg/ml streptomycin, 100 μg/ml gentamycin, and 2.5 μg/ml amphotericin B. The L3 animals were activated to resume development and feeding by including 10% (v/v) canine serum and 25 mM S-methyl-glutathione (GSM; Hawdon et al. (1995) Exper. Parasitol. 80:205-211). Non-activated L3 animals were incubated in RPMI alone (i.e., without the stimulus). […] The percentage of feeding L3 animals was determined by incubating the L3 animals with 2.5 mg/ml FITC-BSA for 2-3 hours, followed by counting the number of L3 animals that had ingested the labeled BSA by microscopic examination under epi-fluorescent illumination (Hawdon and Schad (1990) J. Parasit. 76:394-398). […]

SMILES	animals recovered (resumption of feeding)
COC(=O)C1=CCCN(C)C1 [arecoline]	60-80%
O=C1CCCN1CC#CCN1CCCC1 [oxotremorine]	60-80%
